From patent US5432165A, “Methods for the treatment of infection caused by Hepatitis B virus (HBV)” (priority 1992, dated 1995)
This continues a long series; more values of the same kind are listed elsewhere.

System: hepatitis B virus
Test: Oral FIAU in immune-competent patients with chronic hepatitis B: HBV DNA and HBV DNA polymerase
Type: in vivo, human
Conditions: 0.25 mpk, individual patients 1B-6B
Procedure: To assess the antiviral activity of FIAU against hepatitis B virus, up to 24 patients with chronic hepatitis B will be treated with oral FIAU in doses of 0.05, 0.10, 0.25 or 0.50 mg/kg-day in three divided doses daily for four weeks. Six patients, of which only three can be previous interferon failures, will be initially dosed at 0.10 mg/kg-day. Depending on tolerance and efficacy, the next six patients will be entered at 0.05 or 0.25 mg/kg-day.
This study is an open and uncontrolled evaluation of oral FIAU in the treatment of chronic hepatitis B. Up to four dose cohorts of six patients each will be sequentially studied starting at 0.10 mg/kg-day. Patients will take the medication three times per day for four weeks. Depending on efficacy and tolerance, the next dose cohort will be either 0.05 or 0.25 mg/kg-day.
Patients who meet the eligibility criteria will start on therapy, generally as outpatients one to two weeks after the in-hospital evaluation. Up to four doses will be sequentially evaluated. The initial six patients will receive 0.10 mg/kg-day for four weeks. […]
The FIAU will be administered by mouth in three equally divided doses daily. […] Dosing compliance will be monitored by measuring the residual FIAU solution returned at the weekly outpatient visit.
Activity of FIAU against hepatitis B virus will be assessed by monitoring levels of HBV DNA. […]

Structure (SMILES): O=c1[nH]c(=O)n([C@@H]2O[C@H](CO)[C@@H](O)[C@@H]2F)cc1I [FIAU, 1-(2'-deoxy-2'-fluoro-β-D-arabinofuranosyl)-5-iodouracil]
- HBV DNA (Month 1 (follow-up)): 116.6 pg/mL
- HBV DNA (Week 5 (after 4-week treatment)): 96.3 pg/mL
